Assay results from patent US20040258754A1, “Compositions for oral administration of camptothecin and its analogs” (priority 2003, published 2004).
For at least one compound, name, drawing or mass did not settle the structure.

Assay: Loading (uptake) of drugs into Pluronic-PAA microgels
Format: physicochemical
Details: 1 wt % microgel suspension pH 7.0
Description: The beads were used in order to enhance the area of contact between the microgel suspension and drug. The beads were separated into several fractions. One fraction was added to a polypropylene vial containing the microgel suspension (0.5 mL) and the vial was gently shaken in a horizontal position in an environmental chamber at 20 or 37° C. Then the beads were recovered from the suspension by using a magnet. The beads were dried under vacuum and placed into an appropriate solvent (0.5 mL), where the solute was extracted after shaking overnight. The solvent fraction was assayed for the solute concentration using HPLC. The control fraction of loaded beads was subjected to the extraction without equilibration with the microgel suspension. The solute concentrations were measured in triplicate using the HPLC system described above. […] The peak area was integrated and used to calculate camptothecin concentration using standard calibration curves.

## C[C@]12CC[C@@H]3c4ccc(O)cc4CC[C@H]3[C@@H]1CC[C@@H]2O [β-Estradiol]
F127-based gel, 20° C.
  Uptake ± S.D.: 4.55 ± 0.46 (20° C.) μmol/g gel
F127-based gel, 37° C.
  Uptake ± S.D.: 8.12 ± 0.39 (37° C.) μmol/g gel
L92-based gel, 20° C.
  Uptake ± S.D.: 6.32 ± 0.64 (20° C.) μmol/g gel
L92-based gel, 37° C.
  Uptake ± S.D.: 9.68 ± 0.24 (37° C.) μmol/g gel
